In patent US20190241925A1:
Results are given in words; binding and its absence hold for the method and conditions named. Some binding calls cover weakened binding; strength is not graded here.

Tests used:
[1] = target: V5-tagged IL13Rα2TF-Fc target protein; test: capture ELISA, wells coated with recombinant Protein A, culture medium, captured target detected with peroxidase-conjugated goat anti-human IgG F(ab')2 (Example 22)
[2] = target: V5-tagged IL13Rα2TF-Fc target protein; test: capture ELISA, wells coated with recombinant purified Protein A, culture medium, peroxidase-conjugated goat anti-human IgG F(ab')2 detection (Example 20)
[3] = target: V5-tagged IL13Rα2TF-Fc target protein; test: capture ELISA, Protein A capture, culture medium, peroxidase-conjugated goat anti-human IgG F(ab')2 detection, TMB read at 450 nm (Example 21)
[4] = target: V5-tagged IL13Rα2TF-Fc target protein; test: capture ELISA, wells coated with recombinant purified Protein A, culture medium, peroxidase-conjugated goat anti-human IgG F(ab')2 detection (Example 19)

Measured: binding

recombinant purified Protein A (from UniProt P38507 37-327)
binds: all assays above
